According to PMC5370183, “Kinetics of the LOV domain of ZEITLUPE determine its circadian function in Arabidopsis” (eLife, 2017):
Results are given in words; binding and its absence hold for the method and conditions named. For some of these results: In cells and extracts the contact can be indirect. Some results given as binding are weak or reduced against the parent protein; the word gives no strength. For some of these results: Where a sequence is shown, tags or fusion partners need not be part of it.

Sequences of proteins named here, by UniProt entry; tags and fusion partners are left off.
UniProt Q9FHW7: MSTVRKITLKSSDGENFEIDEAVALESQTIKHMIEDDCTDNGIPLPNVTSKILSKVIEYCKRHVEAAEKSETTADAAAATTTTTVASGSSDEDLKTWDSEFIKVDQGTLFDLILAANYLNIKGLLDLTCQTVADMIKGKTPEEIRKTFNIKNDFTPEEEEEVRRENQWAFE

T1: GI-GFP (GIGANTEA) (Arabidopsis thaliana) (UniProt Q9SQI2)
T1 sequence: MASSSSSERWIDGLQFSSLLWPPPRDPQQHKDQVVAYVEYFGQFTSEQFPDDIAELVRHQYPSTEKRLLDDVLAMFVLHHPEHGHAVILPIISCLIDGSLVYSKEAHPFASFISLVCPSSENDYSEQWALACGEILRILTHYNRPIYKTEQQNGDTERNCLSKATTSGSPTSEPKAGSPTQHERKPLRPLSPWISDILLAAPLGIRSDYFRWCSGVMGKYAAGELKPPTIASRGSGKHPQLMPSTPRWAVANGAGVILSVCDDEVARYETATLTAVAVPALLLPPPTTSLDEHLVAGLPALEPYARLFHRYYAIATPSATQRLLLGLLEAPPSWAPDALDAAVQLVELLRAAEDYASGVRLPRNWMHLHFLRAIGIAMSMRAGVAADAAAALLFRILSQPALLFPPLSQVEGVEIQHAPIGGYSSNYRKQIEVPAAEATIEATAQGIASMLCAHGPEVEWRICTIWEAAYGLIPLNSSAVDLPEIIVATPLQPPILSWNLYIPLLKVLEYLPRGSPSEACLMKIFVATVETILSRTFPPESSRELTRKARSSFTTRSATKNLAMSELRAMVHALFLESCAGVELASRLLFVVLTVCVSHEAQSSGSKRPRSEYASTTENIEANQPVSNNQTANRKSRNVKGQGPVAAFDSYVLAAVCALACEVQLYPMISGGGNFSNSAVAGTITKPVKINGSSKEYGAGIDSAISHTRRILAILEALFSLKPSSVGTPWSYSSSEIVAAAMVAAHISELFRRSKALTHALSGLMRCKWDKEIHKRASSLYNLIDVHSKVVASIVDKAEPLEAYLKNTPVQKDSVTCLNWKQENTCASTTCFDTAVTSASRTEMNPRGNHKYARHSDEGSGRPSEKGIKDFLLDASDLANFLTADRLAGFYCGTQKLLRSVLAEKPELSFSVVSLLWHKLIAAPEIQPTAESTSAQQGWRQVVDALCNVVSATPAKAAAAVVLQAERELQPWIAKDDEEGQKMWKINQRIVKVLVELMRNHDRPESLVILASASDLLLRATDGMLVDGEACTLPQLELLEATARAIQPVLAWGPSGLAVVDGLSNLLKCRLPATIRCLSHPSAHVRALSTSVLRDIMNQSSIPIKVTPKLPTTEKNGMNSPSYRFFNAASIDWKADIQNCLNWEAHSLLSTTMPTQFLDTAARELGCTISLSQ


Experiments:
[1] = biological target: ZTL 29–165 I151R (Arabidopsis thaliana) (UniProt Q94BT6); assay: SEC; Superdex 200 10/300 analytical column in stabilizing buffer (50 mM Tris pH 7 or 50 mM Hepes pH 8 with 100 mM and 10% glycerol); apparent MW against standards; G80R in dark and light state; both purified
[2] = biological target: ARABIDOPSIS SKP1-LIKE 2 (ASK2) (Arabidopsis thaliana) (UniProt Q9FHW7); assay: co-IP; transient co-expression in N. benthamiana, light or darkness; precipitated with anti-FLAG, ZTL variants detected with anti-HA antibody
[3] = biological target: T1, GI-GFP (GIGANTEA) (Arabidopsis thaliana); assay: co-IP; transient co-expression in N. benthamiana, continuous light or dark for 24 hr; GI-GFP precipitated with GFP antibody, ZTL variants detected with HA antibody

binding [1] | binding [2] | binding [3] | Binder
no binding |  |  | ZTL 29–165 I151R (domain or fragment, UniProt Q94BT6 29-165) GGPIPYPVGNLLHTAPCGFVVTDAVEPDQPIIYVNTVFEMVTGYRAEEVLGGNCRFLQCRGPFAKRRHPLVDSMVVSEIRKCIDEGIEFQGELLNFRKDGSPLMNRLRLTPIYGDDDTITHIRGIQFFIETDIDLGP
 | binds | binds | HA-ZTL (G80R) (protein, UniProt Q94BT6 1-609) MEWDSGSDLSADDASSLADDEEGGLFPGGGPIPYPVGNLLHTAPCGFVVTDAVEPDQPIIYVNTVFEMVTGYRAEEVLGRNCRFLQCRGPFAKRRHPLVDSMVVSEIRKCIDEGIEFQGELLNFRKDGSPLMNRLRLTPIYGDDDTITHIIGIQFFIETDIDLGPVLGSSTKEKSIDGIYSALAAGERNVSRGMCGLFQLSDEVVSMKILSRLTPRDVASVSSVCRRLYVLTKNEDLWRRVCQNAWGSETTRVLETVPGAKRLGWGRLARELTTLEAAAWRKLSVGGSVEPSRCNFSACAVGNRVVLFGGEGVNMQPMNDTFVLDLNSDYPEWQHVKVSSPPPGRWGHTLTCVNGSNLVVFGGCGQQGLLNDVFVLNLDAKPPTWREISGLAPPLPRSWHSSCTLDGTKLIVSGGCADSGVLLSDTFLLDLSIEKPVWREIPAAWTPPSRLGHTLSVYGGRKILMFGGLAKSGPLKFRSSDVFTMDLSEEEPCWRCVTGSGMPGAGNPGGVAPPPRLDHVAVNLPGGRILIFGGSVAGLHSASQLYLLDPTEDKPTWRILNIPGRPPRFAWGHGTCVVGGTRAIVLGGQTGEEWMLSELHELSLASYLT
 | binds | binds | HA-tagged ZTL G46S (protein, UniProt Q94BT6 1-609) MEWDSGSDLSADDASSLADDEEGGLFPGGGPIPYPVGNLLHTAPCSFVVTDAVEPDQPIIYVNTVFEMVTGYRAEEVLGGNCRFLQCRGPFAKRRHPLVDSMVVSEIRKCIDEGIEFQGELLNFRKDGSPLMNRLRLTPIYGDDDTITHIIGIQFFIETDIDLGPVLGSSTKEKSIDGIYSALAAGERNVSRGMCGLFQLSDEVVSMKILSRLTPRDVASVSSVCRRLYVLTKNEDLWRRVCQNAWGSETTRVLETVPGAKRLGWGRLARELTTLEAAAWRKLSVGGSVEPSRCNFSACAVGNRVVLFGGEGVNMQPMNDTFVLDLNSDYPEWQHVKVSSPPPGRWGHTLTCVNGSNLVVFGGCGQQGLLNDVFVLNLDAKPPTWREISGLAPPLPRSWHSSCTLDGTKLIVSGGCADSGVLLSDTFLLDLSIEKPVWREIPAAWTPPSRLGHTLSVYGGRKILMFGGLAKSGPLKFRSSDVFTMDLSEEEPCWRCVTGSGMPGAGNPGGVAPPPRLDHVAVNLPGGRILIFGGSVAGLHSASQLYLLDPTEDKPTWRILNIPGRPPRFAWGHGTCVVGGTRAIVLGGQTGEEWMLSELHELSLASYLT
 | binds | binds weakly | HA-ZTL (V48I) (protein, UniProt Q94BT6 1-609) MEWDSGSDLSADDASSLADDEEGGLFPGGGPIPYPVGNLLHTAPCGFIVTDAVEPDQPIIYVNTVFEMVTGYRAEEVLGGNCRFLQCRGPFAKRRHPLVDSMVVSEIRKCIDEGIEFQGELLNFRKDGSPLMNRLRLTPIYGDDDTITHIIGIQFFIETDIDLGPVLGSSTKEKSIDGIYSALAAGERNVSRGMCGLFQLSDEVVSMKILSRLTPRDVASVSSVCRRLYVLTKNEDLWRRVCQNAWGSETTRVLETVPGAKRLGWGRLARELTTLEAAAWRKLSVGGSVEPSRCNFSACAVGNRVVLFGGEGVNMQPMNDTFVLDLNSDYPEWQHVKVSSPPPGRWGHTLTCVNGSNLVVFGGCGQQGLLNDVFVLNLDAKPPTWREISGLAPPLPRSWHSSCTLDGTKLIVSGGCADSGVLLSDTFLLDLSIEKPVWREIPAAWTPPSRLGHTLSVYGGRKILMFGGLAKSGPLKFRSSDVFTMDLSEEEPCWRCVTGSGMPGAGNPGGVAPPPRLDHVAVNLPGGRILIFGGSVAGLHSASQLYLLDPTEDKPTWRILNIPGRPPRFAWGHGTCVVGGTRAIVLGGQTGEEWMLSELHELSLASYLT
